PMC10353892

By UniProt entry, the sequences of proteins in these tests, tags left out.
UniProt P46824: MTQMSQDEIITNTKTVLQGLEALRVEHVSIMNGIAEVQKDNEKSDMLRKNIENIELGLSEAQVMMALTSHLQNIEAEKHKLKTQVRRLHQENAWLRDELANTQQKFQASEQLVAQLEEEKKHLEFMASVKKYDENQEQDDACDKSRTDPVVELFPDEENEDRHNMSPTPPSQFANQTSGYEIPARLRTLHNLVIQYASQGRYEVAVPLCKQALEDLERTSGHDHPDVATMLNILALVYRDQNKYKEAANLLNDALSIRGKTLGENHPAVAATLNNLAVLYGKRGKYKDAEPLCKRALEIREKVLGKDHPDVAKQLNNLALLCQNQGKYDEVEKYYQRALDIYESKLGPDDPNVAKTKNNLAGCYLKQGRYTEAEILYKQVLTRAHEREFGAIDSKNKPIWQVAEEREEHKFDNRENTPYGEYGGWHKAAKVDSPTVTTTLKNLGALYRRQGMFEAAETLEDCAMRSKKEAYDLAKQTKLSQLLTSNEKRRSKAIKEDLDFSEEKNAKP
UniProt Q00168: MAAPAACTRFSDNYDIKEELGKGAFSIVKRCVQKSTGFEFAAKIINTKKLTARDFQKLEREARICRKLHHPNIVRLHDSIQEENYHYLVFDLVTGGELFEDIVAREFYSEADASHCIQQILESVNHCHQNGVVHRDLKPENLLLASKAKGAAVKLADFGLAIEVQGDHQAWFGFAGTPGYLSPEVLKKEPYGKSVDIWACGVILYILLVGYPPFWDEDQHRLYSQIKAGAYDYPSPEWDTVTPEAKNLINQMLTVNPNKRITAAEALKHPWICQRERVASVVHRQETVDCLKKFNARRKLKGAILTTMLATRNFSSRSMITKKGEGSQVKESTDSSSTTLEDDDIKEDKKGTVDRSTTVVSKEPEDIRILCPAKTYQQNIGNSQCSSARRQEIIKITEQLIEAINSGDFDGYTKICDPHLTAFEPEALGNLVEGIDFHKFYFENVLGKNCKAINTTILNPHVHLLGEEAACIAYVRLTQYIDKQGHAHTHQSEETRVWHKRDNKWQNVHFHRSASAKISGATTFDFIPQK

T1: Tws-GFP (Drosophila) (UniProt P36872)
T1 sequence: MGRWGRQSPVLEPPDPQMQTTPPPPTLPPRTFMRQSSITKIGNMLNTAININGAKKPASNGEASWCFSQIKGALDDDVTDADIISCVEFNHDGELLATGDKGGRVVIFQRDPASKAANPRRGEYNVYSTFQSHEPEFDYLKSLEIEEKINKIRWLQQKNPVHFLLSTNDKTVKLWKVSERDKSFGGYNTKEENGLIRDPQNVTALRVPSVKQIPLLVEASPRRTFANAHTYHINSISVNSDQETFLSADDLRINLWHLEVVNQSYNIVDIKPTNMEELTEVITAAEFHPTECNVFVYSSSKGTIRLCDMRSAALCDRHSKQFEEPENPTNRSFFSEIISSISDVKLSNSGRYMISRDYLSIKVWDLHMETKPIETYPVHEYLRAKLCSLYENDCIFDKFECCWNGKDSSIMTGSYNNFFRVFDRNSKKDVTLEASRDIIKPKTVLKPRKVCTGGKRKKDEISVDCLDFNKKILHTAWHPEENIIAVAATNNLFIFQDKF

T2: GFP-Ote^WT (transgenic embryos) (Drosophila) (UniProt P20240)
T2 sequence: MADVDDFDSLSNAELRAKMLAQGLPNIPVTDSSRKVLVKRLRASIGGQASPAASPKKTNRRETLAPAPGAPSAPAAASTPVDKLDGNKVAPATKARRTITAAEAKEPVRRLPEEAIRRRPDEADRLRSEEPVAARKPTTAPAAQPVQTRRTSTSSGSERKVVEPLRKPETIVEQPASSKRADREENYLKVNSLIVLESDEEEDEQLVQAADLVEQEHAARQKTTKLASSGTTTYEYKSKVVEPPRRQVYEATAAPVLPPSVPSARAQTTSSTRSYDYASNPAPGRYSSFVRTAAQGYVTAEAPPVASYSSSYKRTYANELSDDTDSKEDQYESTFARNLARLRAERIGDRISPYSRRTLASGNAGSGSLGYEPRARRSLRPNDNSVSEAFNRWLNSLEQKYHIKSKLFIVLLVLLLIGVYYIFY

B1: otefin (protein, UniProt P20240 1-424)
chain: T2 sequence
B2: HBS1 (protein, UniProt Q9W074 1-670)
chain: MSRHRIVRTMDYNDEYDGYDDIYGHSVEDEHCISPTDAQQWLYDRARGQQSISAFISKNKDIQEEEADEDEDEDAAFAKARRDSESFQMPQLDEIEQAKLSSCVDEVRSVVGDAVSERRIVETSMKFDYDMQKILDEILNEETNKSAKPAVNKMKAPAAPVLPKTVSKTVPTPPPKISLKEPRRGFEIPSPKVPSSPVVSGRNTPVDISAGDDISRSSATVFKVSKEQAVRNARQLYEKERADQKSHIHMIVIGHVDAGKSTLMGHLLYDTGNVSQRVMHKHEQESKKLGKQSFMYAWVLDETGEERARGITMDVGQSRIETKTKIVTLLDAPGHKDFIPNMISGATQADVALLVVDATRGEFESGFELGGQTREHAILVRSLGVNQLGVVINKLDTVGWSQDRFTEIVTKLKSFLKLAGFKDSDVSFTPCSGLTGENLTKKAQEPALTNWYSGRHLLDVIENFKIPERAIDRPLRMSVSDIYKGTGSGFCISGRVETGVLCLNDKVLVGASREQAQVKSLTMNEFPQTCVFAGDQVSVTLPALDINNVTVGCIISDPQTPIPVTTRFQARIIVFNVKVPITMGFPVLLHHQSLIEPAVVCKLTASIHKSTGEVVKKKPRCLGNNSCALVELETSRPICIERYADFKELGRVMLRVAGVTIAAGMVTKIR
B3: chb (Orbit) (protein, UniProt Q9NBD7 1-1491)
chain: MAYRKPSDLDGFIQQMPKADMRVKVQLAEDLVTFLSDDTNSIVCTDMGFLIDGLMPWLTGSHFKIAQKSLEAFSELIKRLGSDFNAYTATVLPHVIDRLGDSRDTVREKAQLLLRDLMEHRVLPPQALIDKLATSCFKHKNAKVREEFLQTIVNALHEYGTQQLSVRVYIPPVCALLGDPTVNVREAAIQTLVEIYKHVGDRLRPDLRRMDDVPASKLAMLEQKFDQVKQEGLLLPSALKNTNGNGVGLDEADNIGLRERPTRMIKRPLHSAVSSSLRPKPNVNDVTGDAGAVTMESFESSFEVVPQLNIFHAKDMDDIYKQVLVIISDKNADWEKRVDALKKIRALLILSYHTQPQFVAVQLKELSLSFVDILKEELRSQVIREACITIAYMSKTLRNKLDAFCWSILEHLINLIQNSAKVIASASTIALKYIIKYTHAPKLLKIYTDTLNQSKSKDIRSTLCELMVLLFEEWQTKALERNATVLRDTLKKSIGDADCDARRHSRYAYWAFRRHFPELADQIYGTLDIAAQRALEREREGGGGGGTGTGTGTAPETRRTVSRIGRTPGTLQKPTPSMRSISAVDTAAAQRAKVRAQYTLYSRQRKPLGPNNSNQASMTGAAASGSLPRPRLNSNSGGTPATTPGSVTPRPRGRAGVSQSQPGSRSTSPSTKLRDQYGGIGNYYRGATGAIPKKASGIPRSTASSRETSPTRSGGGLMKRSMYSTGAGSRRTPERNNPVRPSAAARLLAQSREAEHTLGVGDDGQPDYVSGDYMRSGGMRMGRKLMGRDESDDIDSEASSVCSERSFDSSYTRGNKSNYSLSGSHTRLDWSTQRAPFDDIETIIQFCASTHWSERKDGLISLTQYLADGKELTQQQLKCVLDMFRKMFMDTHTKVYSLFLDTVTELILVHANELHEWLFILLTRLFNKLGTDLLNSMHSKIWKTLQVVHEYFPTQLQLKELFRIISDSTQTPTTKTRIAILRFLTDLANTYCKSSDFPSDQSQACERTVLKLAQLAADQKSMELRSQARSCLVALYNLNTPQMTLLLADLPKVYQDSARSCIHSHMRRQSQSCNSGANSPSSSPLSSSSPKPLQSPSVGPFASLQSHHHQLSISSTSPRSRQSSVEQELLFSSELDIQHNIQKTSEEIRHCFGGQYQTALAPNGFNGHLQYHDQGQQDSCASLSSNSKTQSSANTTQSNTPESATMRLDNLERERTTQNAKSPTDDAKVITVSINMAENGELILASNLMESEVVRVALTLTKDQPVELLQTSLTNLGICIKGGNCELPNKHFRSIMRMLLNILEAEHTDVVIAGLHVLSKIMRSNKMRHNWMHFLELILLKIIQCYQHSKEALRDIDSMIPRIAPSLPLDLSINIVNPVIATGEFPTNLCAIKILLEVTEHHGSEITDAHLDIVFPNLARSADDTQSMVRKAAVFCIVKLYFVLGEEKVKPKLSVLNPSKVRLLNVYIEKQRNCISGGGSSTKNSSAASSS
B4: Akap200 (protein, UniProt Q9VLL3 1-753)
chain: MGKAQSKRSIDITTDPKKVGEGDEVAGKVEKIDVDQKTDAPAVNGDAATPKEGGDEAAAVEKKETEEHSENDKDLTTEKSAAVAEGGDAVAETAKGEEGSPKEAAAGEDITPLADESIKSKSKKDKVKKKWSFRSISFGKKDKQKPAKSEEATSPTSGTTSPTTAEAEAAPAGDAAVAEPSVATNGEAEKPAETATATSEPASKDEKPAENGSATEQEKQANGETEKAAPAPSTVEEAAKPKPAEEPATVTATESNTTATEEVPVKESQPEPEVVTNGHGAGEALTNGSSNGLAESPVTETAPVADNIPSNVDDEPPHQNGTNGTTTPPPTPVATEIEKGQQIEASSEVIETVTPSQAEEEVVAAIIKAVSSEPEAETETETEAEGFVLVAPVSTEVEVPVSISPIEPVAEVSQVKIEPLVEIPEVEAKSVADVSEADTESVPKVSELKTEVSEIEFESVIVETRSSSPPPPLPKSPPPSRVSAFVLSEDVIEEQVTPNVPEVNDVKPDEIEQQAISIVAEITEQAAEIVTEQEKQQEEAKVDSVPETIEESSSTVVVEEVLPVQNDEVTAPSPTPDDVQKPIEDQDTPDEKESYPVPDPIDPAAVNDEVAVTEAVDCEVEKETGSISSNVAESSSVSDEQAAIENQVEILEEQTVAVEETTEQETSDQQVISEEAHSDNDKENEIDLVENIISDLDAPITKAGGDLLVELDARSAEQEGESNNKVDLAKDLKEKNAAAADVTTQEQLPVTCE
B5: CG7414 (eIF2A) (protein, UniProt Q9VNX8 1-638)
chain: MAAAADLVVPTLAIRSSVAVELWSSAGSKQPFEHKPHLPREETKSSRSICFSSNGRYFAYSNGQEVKVLQASRDSAASWPVICVLPRPKAFYLQFSPRGSYLCTWEHYAITKDRPEGSPNLLVYEVATGVEVFAIVQKNQADWQPSWSADESIFALVVGGEALFYDLGEGAEKGFATTSRKIGGSRGGMLSLGPGNCPPFLAFYTPGAKGAPSMCKLYKYPALGQNQTVACKSFFQADRVEMLWNKRGSGLLLLTSTEVDKSGASYYGNQAVHFMATKGDTCSVPLSKEGPVHCVKWSPKATEFVVVYGFMPSKAALYNLKCDVVFDFGEGPRNCAYFNPFGNLIALAGFGNLPGAVEVWDVSKREKLANLKCADTTVFEWHPNGEWFVTATTAPRLRISNGFKVYHYSGALLHETMWPQGQELLGIEWQQFADKTFSEPKITKAKHEGIKSSQPEASKKAYTPPHLRLLKEGKNPEKYLPQPSIPGLAPTAAAGGVNGNKRNNKNKQRSARKDVNVVNGGDADSAPTEVVDQAAPVARQSPVFVAAEERKPQHTPRQKYQPDNAADQPPNSYGQGHPNGQHISDKERKIRSVAKKLSDIKKLKVRRSQGENLELNQLNKIKMEAQYLDELKALKQSA
B6: Bocksbeutel (Bocks) (protein, UniProt Q709R6 1-399)
chain: MSDLSYLDTLGNKELLAKCLEHGLPGVPVTDSTRSVIIRRLKAKITGVPLNKSKSASKKAIPRRETVHGSQVTTPTSEPVRRTPGKSAGRTSSNNNKISEQSRRTIAYGLDNTSISGRSVQTTTTVSDMSSQSEDDDSYMVDSPVPNYSKDQQPRRYVSLAKSGVLTTSYTREVDQPLYEQEDIPRSYTYERPHVPAATLHALPTYEPRIEPSTYRPTDLGFSRPLLTQTNLNSTSYEESSTYNPKLSPISPRNTFSGSARPFGGPAPAPAPIRQRQSVPVSGSNLARGRLLQPTTAVNTLYPQLNEFYDQPNDAGEPMETESESEVEEVPINSHFQKNRFSPLARKPLVRHHDQVSPMAQFRALAVSLDQKYNLKFYLILVVSVMLATMVYVVLTPNA

Legend:
[1] = biological target: T1, Tws-GFP (Drosophila); assay: affinity purification with mass spectrometry; GFP-Trap agarose on lysates of 0-2 h embryos expressing the GFP fusion, GFP alone as control; 20 mM Tris pH 7.5, 150 mM NaCl, 2 mM MgCl2, 0.5% Triton X-100, 4°C; three experiments
[2] = biological target: T2, GFP-Ote^WT (transgenic embryos) (Drosophila); assay: as above

Molecule | binding [1] | binding [2]
Ctf4 (Drosophila (endogenous in embryos)) | binds | 
Rod (Drosophila (endogenous in embryos)) |  | binds
Nocte (Drosophila (endogenous in embryos)) | binds | 
Klc (from UniProt P46824 1-508) | binds | 
girdin (Drosophila (endogenous in embryos)) |  | binds
Vtd/Scc1 (Drosophila (endogenous in embryos)) | binds | 
CaMKII (from UniProt Q00168 1-530) (enzyme) | binds | 
Lost (Drosophila (endogenous in embryos)) | binds | 
MEP-1 (Drosophila (endogenous in embryos)) | binds | 
B1 | binds | 
B2 | binds | 
B3 | binds | 
B4 | binds | 
B5 | binds | 
B6 |  | binds

These are yes or no findings as the source states them, for the method shown. Binding seen in cells or lysates may run through a third protein. A yes stands for co-enrichment or nearness to the bait. Other partners may have been found. Tags and fused reporters may be left off the sequences shown.
